The text below walks through data of PMC13246001, “Membrane binding controls the ATPase cycle and localization of MinD in Bacillus subtilis” (eLife, 2026).

Protein sequences, listed by entry. Tags and fused reporters are not part of them. Residues count along the entry.
UniProt P02769, residues 25-607: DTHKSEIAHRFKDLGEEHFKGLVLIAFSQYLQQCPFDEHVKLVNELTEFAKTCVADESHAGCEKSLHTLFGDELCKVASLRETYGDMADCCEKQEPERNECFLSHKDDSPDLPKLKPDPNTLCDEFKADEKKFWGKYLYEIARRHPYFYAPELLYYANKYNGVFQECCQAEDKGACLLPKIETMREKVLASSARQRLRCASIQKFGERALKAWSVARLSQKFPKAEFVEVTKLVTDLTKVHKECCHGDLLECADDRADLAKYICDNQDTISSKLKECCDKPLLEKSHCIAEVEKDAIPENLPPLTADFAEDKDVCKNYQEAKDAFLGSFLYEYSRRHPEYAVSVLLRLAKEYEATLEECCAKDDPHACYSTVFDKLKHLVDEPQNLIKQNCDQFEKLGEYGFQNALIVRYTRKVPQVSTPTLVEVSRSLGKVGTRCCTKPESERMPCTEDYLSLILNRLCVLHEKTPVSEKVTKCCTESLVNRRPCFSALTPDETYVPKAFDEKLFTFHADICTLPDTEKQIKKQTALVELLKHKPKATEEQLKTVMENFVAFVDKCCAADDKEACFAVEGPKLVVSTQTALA

Numbering of substitutions follows the chain as printed. Names may count otherwise. No constants are given. Whether binding was seen depends on the method and setting. Sequences can lack the tags named with a protein.

For assay [1], the target named is T1, His-MinD (B. subtilis MinD, N-terminally His-tagged) (B. subtilis) (UniProt Q01464).
T1 sequence: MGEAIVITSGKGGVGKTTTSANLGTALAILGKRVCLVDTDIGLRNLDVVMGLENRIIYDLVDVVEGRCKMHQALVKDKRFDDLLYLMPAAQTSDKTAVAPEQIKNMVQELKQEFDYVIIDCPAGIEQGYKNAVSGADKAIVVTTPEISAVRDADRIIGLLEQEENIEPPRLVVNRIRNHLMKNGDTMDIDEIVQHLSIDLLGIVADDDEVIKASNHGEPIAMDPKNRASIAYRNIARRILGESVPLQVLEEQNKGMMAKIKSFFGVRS
As to the kind of experiment: BLI; BLItz, streptavidin sensor coated with biotinylated liposomes, first dipped into 8 uM His-MinD, then into 8 uM His-MinD together with 8 uM of the partner (His-MinC, His-PDZ or BSA); gel filtration buffer C; both purified.

The target of assay [2] is His-MinD-G12V (B. subtilis) (UniProt Q01464). As to the kind of experiment: SEC; Superdex200 Increase 10/300 GL, 0.75 ml/min, buffer C (50 mM HEPES-KOH, 150 mM KCl, 10% glycerol, 0.1 mM EDTA, pH 7.2) with 0.4 mM TCEP and 0.2 mM Mg2+-ADP; column calibrated with a gel filtration standard; both purified.

Turning to “bovine serum albumin (from UniProt P02769 25-607)”, in assay [1], the binding result is recorded as “no binding (tested: 8 µM)”.

B1: His-MinD-G12V (enzyme, UniProt Q01464 1-268)
chain: T1 sequence with G12V
On to B1, for which, in assay [2], the binding result is recorded as “no binding”.
